Source: PubChem BioAssay AID504648 (National Center for Advancing Translational Sciences (NCATS), 2011)
In all, about 390,000 compounds went through this assay and about 610 (0.16%) were called active. Inconclusive results, whose numbers are uncertain, are shown with a selection of clear calls. Calls come from the whole dose curve; as a rule, active = well fitted inhibition curve with a large enough effect; inconclusive = small, poorly fitted or top-dose-only effect, or effect the other way, or another doubt; inactive = no such curve, though single readings can be large or run the other way. Where the call is inconclusive, the potency comes from a doubtful curve fit.

experiment: Nrf2 qHTS screen for inhibitors: counterscreen for cytotoxicity; details: A549 ARE-Fluc cells, CellTiter-Fluor viability, 18-24 h; series mostly up to 46 µM; activity change, negative = cytotoxicity: at the top concentration
Method in brief: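 Cytotoxicity counterscreen: CellTiter-Fluor fluorescence was measured in A549 ARE_Fluc cells after 18-24 h of compound exposure in a concentration series. The subsequent BugLite luminescent read reports ARE-luciferase activity.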
% is set by controls: 0 for no effect and ±100 for the full control effect; potency is the fitted concentration of half-maximal effect.

Row | Compound | Potency | activity change, negative = cytotoxicity
1 | COC(=O)C1=C(c2cccc(OCc3ccccc3)c2)C[C@@H]2CC[C@H]1N2C(=O)NCc1ccccc1OC | inconclusive: 16.4 µM [falling, partial curve, poor fit] | 
2 | CCOc1ccccc1CN1C2CCC1CC(c1ccc(C)cc1)C2 (configuration not stated) | inconclusive: 32.6 µM [falling, partial curve, poor fit] | 
3 | CCC1CN2CCc3cc(OC)c(OC)cc3C2CC1CC1NCCc2c1[nH]c1ccc(O)cc21 (configuration not stated) | active: 1.16 µM | 
4 | Cc1cccc(-n2c(/C=C/c3ccc([N+](=O)[O-])o3)nc3ccccc3c2=O)c1 | inconclusive: 29.1 µM [falling, single point] | 
5 | COCCOC(=O)c1c(N)n(Cc2ccc(OC)cc2)c2nc3ccccc3nc12 |  | inactive: -12.5%
6 | C=C1C(=O)O[C@H]2C[C@@H](C)[C@@H]3C=CC(=O)[C@@]3(C)C[C@H]12 | inconclusive: 18.4 µM [falling, single point] | 
7 | Cc1cccc(N2C(=O)NC(=O)/C(=C\c3cccn3-c3ccc(Cl)cc3)C2=O)c1 | inconclusive: 29.1 µM [falling, single point] | 
8 | CCOc1ccc2nc(N=Nc3c(O)[nH]c(=S)[nH]c3=O)sc2c1 | active: 23.1 µM | 
9 | CC[C@@H](O)C[C@H]1CCC[C@@]2(C[C@@H]3OC(=O)/C=C/[C@@](C)(O)[C@@H](O)[C@H](C)[C@@H](O)[C@H](OC4CCC(N(C)C)C(C)O4)[C@@H](O)[C@](C)(O)CCCCC/C=C/[C@@H]4CC(C)(C)O[C@@]4(O)C[C@H](O2)[C@H]3C)O1 (some centres not stated) | inconclusive: 16.4 µM [falling, partial curve] | 
10 | CCOC(=O)C1CN(C)CCC1=O (configuration not stated) | inconclusive: 18.4 µM [falling, single point] | 
11 | COC(=O)C1=C(c2ccc(Cl)c(C(F)(F)F)c2)C[C@@H]2CC[C@H]1N2C(=O)NCCOc1ccccc1 | inconclusive: 23.1 µM [falling, single point] | 
12 | COC(=O)C1=C(c2ccc(F)cc2F)C[C@@H]2CC[C@H]1N2C(=O)N1CCC(O)(c2ccc(Cl)cc2)CC1 | inconclusive: 16.4 µM [falling, partial curve, poor fit] | 
13 | CCOC(=O)CNC(=O)CNC(=O)C(Cc1ccc(N(CCCl)CCCl)cc1)NC(C)=O (configuration not stated) |  | inactive: -1.92%
14 | Cc1ccccc1-n1c(/C=C/c2c(C)[nH]c3ccccc23)nc2ccccc2c1=O | inconclusive: 16.4 µM [falling, partial curve] | 
15 | CCC(=NCCc1c[nH]c2ccccc12)c1c(O)n(C)c(=O)n(C)c1=O | inconclusive: 2.59 µM [falling, partial curve, poor fit] | 
16 | CCCC(=O)NC(Oc1ccccc1Cl)C(Cl)(Cl)Cl (configuration not stated) |  | inactive: -8.31%
17 | CN1CCN(c2ccc([N+](=O)[O-])c(N)c2)CC1 | inconclusive: 32.6 µM [falling, partial curve, poor fit] | 
18 | O=[As](O)(O)c1ccc(N=Nc2ccc(O)cc2)cc1 | inconclusive: 25.9 µM [falling, partial curve, poor fit] | 
19 | COC(=O)C[C@]1(C(=O)OC)CN(C#N)N(c2ccc(Cl)cc2)C12c1ccccc1-c1ccccc12 | inconclusive: 29.1 µM [falling, single point] | 
20 | COc1ccc2c(c1OC)CN1CCc3cc4c(cc3[C@H]1C2)OCO4 |  | inactive: -1.42%
21 | COC(=O)C1=C(c2ccccc2OCc2ccccc2)C[C@@H]2CC[C@H]1N2C(=O)NC1CCN(Cc2ccccc2)CC1 | inconclusive: 32.6 µM [falling, partial curve, poor fit] | 

Among those listed so far, these have fluorine:
Row | Compound | Potency | activity change, negative = cytotoxicity
11 | COC(=O)C1=C(c2ccc(Cl)c(C(F)(F)F)c2)C[C@@H]2CC[C@H]1N2C(=O)NCCOc1ccccc1 | inconclusive: 23.1 µM [falling, single point] | 
12 | COC(=O)C1=C(c2ccc(F)cc2F)C[C@@H]2CC[C@H]1N2C(=O)N1CCC(O)(c2ccc(Cl)cc2)CC1 | inconclusive: 16.4 µM [falling, partial curve, poor fit] | 

(list continues)

Row | Compound | Potency | activity change, negative = cytotoxicity
22 | COC(=O)C(c1ccccc1)N1CCCCCC1 (configuration not stated) | inconclusive: 32.6 µM [activator, partial curve, poor fit] | 
23 | Cc1ccccc1-[n+]1c(-c2ccccc2)cc(-c2ccccc2)cc1-c1ccccc1 | inconclusive: 18.4 µM [falling, single point] | 
24 | CCOC(=O)c1c(NS(=O)(=O)c2ccccc2)n(CCCOC)c2nc3ccccc3nc12 | inconclusive: 29.1 µM [activator, single point] | 
25 | Fc1ccc(C(OCCN2CCN(CCCc3ccccc3)CC2)c2ccc(F)cc2)cc1 | inconclusive: 18.4 µM [falling, single point] | 
26 | O=C1NC2C(=CC(O)C(O)C2O)c2cc3c(c(O)c21)OCO3 (configuration not stated) | inconclusive: 0.259 µM [falling, full curve] | 
27 | O=c1[nH]c(O)c(N=Nc2ccc(SC(F)F)cc2)c(=O)[nH]1 | inconclusive: 14.6 µM [falling, partial curve, poor fit] | 
28 | CCCCCCCn1c(=O)c(C(=O)Nc2cnccn2)c(O)c2ccccc21 | inconclusive: 1.46 µM [falling, full curve] | 
29 | O=c1[nH]c(=O)n(CCC2=CCCCC2)c(O)c1C=NC1CCN(Cc2ccccc2)CC1 | inconclusive: 16.4 µM [falling, partial curve, poor fit] | 
30 | COc1ccc(Cn2c(N)c(C(=O)NCc3ccco3)c3nc4ccccc4nc32)cc1OC | inconclusive: 29.1 µM [falling, partial curve, poor fit] | 
31 | O=C(CN1CCN(c2ncc(C(F)(F)F)cc2Cl)CC1)N1CCN(c2ncc(C(F)(F)F)cc2Cl)CC1 | inconclusive: 20 µM [falling, partial curve, poor fit] | 
32 | CCN1/C(=C\C=C\C2=[N+](CC)c3ccccc3C2(C)C)C(C)(C)c2ccccc21 | active: 5.17 µM | 
33 | CC1CCC(C(C)C)C(OC(=O)Cn2c(COc3ccccc3)[n+](C)c3ccccc32)C1 (configuration not stated) | inconclusive: 18.4 µM [falling, single point] | 
34 | CN1/C(=C\C=C2C(=O)NC(=S)NC2=O)C(C)(C)c2ccccc21 | inconclusive: 20.6 µM [falling, single point] | 
35 | O=C(N/N=C/c1c(O)n(CCC2=CCCCC2)c(=S)[nH]c1=O)c1ccccc1 |  | inactive: -12.9%
36 | Clc1cccc(N2CCNCC2)c1Cl | inconclusive: 0.58 µM [activator, full curve] | 
37 | O=[N+]([O-])c1ccc(N2CC2)c([N+](=O)[O-])c1 |  | inactive: -14.5%
38 | CC1OC(OC2C(O)CC(OC3C(O)CC(OC4CCC5(C)C(CCC6C5CCC5(C)C(C7=CC(=O)OC7)C(O)CC65O)C4)OC3C)OC2C)CC(O)C1O (configuration not stated) | inconclusive: 0.461 µM [falling, full curve] | 
39 | CCN(CC)c1ccc(/C=C2\C(=O)NC(=S)N(c3ccc(OC)cc3OC)C2=O)o1 | active: 13 µM | 
40 | Cc1ccc(-c2cc(-c3ccc(C)cc3)[n+](-c3ccccc3)c(-c3ccc(C)cc3)c2)cc1 | inconclusive: 7.31 µM [falling, partial curve] | 
41 | COc1ccc(NC(=O)N2CCC3(CC2)OCCO3)cc1OC | inconclusive: 6.51 µM [activator, partial curve, poor fit] | 
42 | CN1Cc2cnnn2-c2ccccc2C1C#N (configuration not stated) |  | inactive: 22.2%

Row | Compound | Potency | activity change, negative = cytotoxicity
43 | CC(C)NS(=O)(=O)c1ccc2c(c1)oc(=O)n2C | inconclusive: 25.9 µM [activator, partial curve, poor fit] | 
44 | COc1ccccc1CN1CCN(C(=O)Cc2ccccc2)CC1 | inconclusive: 32.6 µM [activator, partial curve, poor fit] | 
45 | CC1CC(C)CC(C)C(O)C(C#N)=CC=CCC(C2CCCC2C(=O)O)OC(=O)CC(O)C(C)C1 (configuration not stated) | active: 2.31 µM | 
46 | OC(c1ccccc1)(c1ccccc1)c1ccncc1 | inconclusive: 20.6 µM [activator, partial curve, poor fit] | 
47 | Cn1cc(C(=O)OCC(=O)NC2(C#N)CCCC2)c2ccccc21 |  | inactive: 3.5%
48 | O=C1OC(c2ccc(Br)cc2)=N/C1=C\N1CC2CC(C1)c1cccc(=O)n1C2 (configuration not stated) | inconclusive: 23.1 µM [falling, partial curve, poor fit] | 
49 | O=C(COc1ccccc1)N1CCN(C/C=C/c2ccccc2)CC1 | inconclusive: 32.6 µM [activator, partial curve, poor fit] | 
50 | CC(N)C(=O)NC1C2C(=C(O)CC(O)C2O)C(=O)OC1(C)C(Cl)Cl (configuration not stated) | active: 2.06 µM | 
51 | CC(C)C(=O)c1cn(Cc2ccc(C#N)cc2)c2ccccc12 |  | inactive: 6.61%
52 | CCOP(=O)(/C(C#N)=C(\C)O)c1ccccc1 (configuration not stated) | inconclusive: 29.1 µM [activator, single point] | 
53 | Nc1ccc2c3c(cccc13)-c1ccccc1-2 | inconclusive: 18.4 µM [activator, partial curve, poor fit] | 
54 | CN1CCN(CCC(=O)OC2CC3CCC(C2)N3C)CC1 (configuration not stated) | inconclusive: 32.6 µM [activator, partial curve, poor fit] | 
55 | NC1=C(Br)C(=O)c2ccccc2C1=O | inconclusive: 29.1 µM [falling, single point] | 
56 | O=C(O)C(Cc1cnc[nH]1)NS(=O)(=O)c1ccc(Cl)cc1 (configuration not stated) |  | inactive: -3.92%
57 | COc1ccc(OC)c(N2C(=O)/C(=C/c3ccco3)C(=O)NC2=S)c1 | inconclusive: 23.1 µM [falling, partial curve, poor fit] | 
58 | CCN1CC=C(c2c[nH]c3ccccc23)CC1 | inconclusive: 7.31 µM [falling, partial curve, poor fit] | 
59 | CCC(=O)c1ccc(OCC(=O)N2CCN(CC(=O)Nc3ccccc3C(F)(F)F)CC2)cc1 |  | inactive: -20.7%
60 | Cn1ncnc2c(=O)n(C)c(=O)nc1-2 | active: 0.461 µM | 
61 | COc1ccc(CC(=O)N(CCN(C)C)CC2CCCN(Cc3ccccc3F)C2)cc1 (configuration not stated) | inconclusive: 2.31 µM [falling, partial curve, poor fit] | 
62 | CN(N=O)c1cc(O)ccc1O | inconclusive: 20.6 µM [falling, partial curve, poor fit] | 
